Measured values as given in article PMC10218830.
No constants are given. Whether binding was seen depends on the method and setting. For some of these results: In cells and extracts the contact can be indirect. Some binding calls cover weakened binding; strength is not graded here.

Amino acid sequences for entries named in this document (tags omitted).
UniProt Q96LA8: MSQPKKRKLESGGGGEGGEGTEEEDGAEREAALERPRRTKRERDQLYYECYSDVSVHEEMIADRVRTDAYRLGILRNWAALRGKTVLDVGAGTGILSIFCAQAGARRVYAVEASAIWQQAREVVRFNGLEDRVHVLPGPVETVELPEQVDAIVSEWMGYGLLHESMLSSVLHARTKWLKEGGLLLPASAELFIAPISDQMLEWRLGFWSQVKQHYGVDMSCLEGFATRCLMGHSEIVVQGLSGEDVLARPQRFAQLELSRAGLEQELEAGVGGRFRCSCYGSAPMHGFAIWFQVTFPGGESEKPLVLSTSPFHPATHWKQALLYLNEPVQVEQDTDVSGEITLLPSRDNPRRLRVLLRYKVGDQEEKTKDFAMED
UniProt O60678: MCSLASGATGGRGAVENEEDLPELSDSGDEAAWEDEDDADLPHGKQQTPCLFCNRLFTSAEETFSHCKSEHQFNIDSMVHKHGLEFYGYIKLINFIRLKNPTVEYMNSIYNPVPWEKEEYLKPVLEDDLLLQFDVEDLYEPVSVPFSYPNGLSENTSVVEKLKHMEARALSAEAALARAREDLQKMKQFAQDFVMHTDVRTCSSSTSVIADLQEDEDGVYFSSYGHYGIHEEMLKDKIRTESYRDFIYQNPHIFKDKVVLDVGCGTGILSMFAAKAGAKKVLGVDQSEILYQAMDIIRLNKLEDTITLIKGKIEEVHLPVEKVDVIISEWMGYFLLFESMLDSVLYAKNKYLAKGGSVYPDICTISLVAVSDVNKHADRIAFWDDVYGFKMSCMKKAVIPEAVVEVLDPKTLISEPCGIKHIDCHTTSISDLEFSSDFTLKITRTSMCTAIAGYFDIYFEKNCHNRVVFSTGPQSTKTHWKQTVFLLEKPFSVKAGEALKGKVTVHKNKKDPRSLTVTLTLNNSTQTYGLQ
UniProt Q99873: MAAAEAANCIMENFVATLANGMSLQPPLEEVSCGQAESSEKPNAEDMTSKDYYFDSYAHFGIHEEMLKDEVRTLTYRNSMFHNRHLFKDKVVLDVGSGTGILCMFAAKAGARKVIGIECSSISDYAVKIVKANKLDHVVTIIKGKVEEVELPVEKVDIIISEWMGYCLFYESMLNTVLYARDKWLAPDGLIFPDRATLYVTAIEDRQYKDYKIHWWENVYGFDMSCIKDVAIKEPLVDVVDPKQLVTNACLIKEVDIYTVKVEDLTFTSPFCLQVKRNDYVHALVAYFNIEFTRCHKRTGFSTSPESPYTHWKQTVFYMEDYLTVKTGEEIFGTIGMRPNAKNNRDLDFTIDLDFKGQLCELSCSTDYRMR
UniProt Q9UBS0: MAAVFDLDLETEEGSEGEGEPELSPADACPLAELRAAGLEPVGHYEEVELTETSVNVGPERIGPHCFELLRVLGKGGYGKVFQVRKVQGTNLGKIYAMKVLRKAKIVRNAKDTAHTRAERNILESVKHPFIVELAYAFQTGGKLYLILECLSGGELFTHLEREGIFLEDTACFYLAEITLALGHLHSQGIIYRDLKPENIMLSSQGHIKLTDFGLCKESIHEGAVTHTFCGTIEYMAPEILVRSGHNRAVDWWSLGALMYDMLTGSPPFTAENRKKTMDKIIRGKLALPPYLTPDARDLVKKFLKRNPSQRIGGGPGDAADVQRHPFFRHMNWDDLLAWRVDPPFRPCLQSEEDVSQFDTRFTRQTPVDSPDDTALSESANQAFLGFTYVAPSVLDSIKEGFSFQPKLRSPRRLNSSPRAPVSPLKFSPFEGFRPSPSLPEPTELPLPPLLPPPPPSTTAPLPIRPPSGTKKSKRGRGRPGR

How the values were obtained:
Myc-tagged PRMT6 = Myc-tagged PRMT6 (UniProt Q96LA8); test: co-IP; HEK293 cells expressing Myc-PRMT6 and EE-S6K2, treated 30 min with 100 nM Rapamycin, 50 uM LY294002 or DMSO; lysates immunoprecipitated with anti-Myc-tag (or anti-EE-tag) antibody; immune complexes read by in vitro kinase assay on 80S ribosomes (rpS6) with [gamma-32P]ATP
GST-PRMT3 = GST-PRMT3 (UniProt O60678); test: pull-down; GST-PRMTs or GST alone on Glutathione-Sepharose 4B beads incubated with recombinant His-S6K2 in 20 mM Tris-HCl pH 7.5, 150 mM NaCl, 1% Triton, 1% BSA, 0.5% NP-40, 3 h at 4 C; with or without 200 uM AdoMet; immunoblot with anti-S6K2 antibody; both purified
GST-PRMT6 = GST-PRMT6 (UniProt Q96LA8); test: as above
GST-PRMT1 = GST-PRMT1 (UniProt Q99873); test: as above
[1] = target: EE-tagged p54-S6K2 (human) (UniProt Q9UBS0); test: co-IP; HEK293 cells expressing Myc-PRMT6 and EE-S6K2, serum-free media for 24 h then 10% FBS for the indicated times (30 min to 6 h); lysates immunoprecipitated with anti-EE-tag antibody, immunoblotting
[2] = target: Ribosomal S6 kinase 2 (S6K2), endogenous (human (endogenous in HEK293)) (UniProt Q9UBS0); test: co-IP; endogenous S6K2 immunoprecipitated from HEK293 lysate, interacting proteins detected by immunoblotting; Protein A-Sepharose beads alone as control

With “EE-tagged p54-S6K2 (from UniProt Q9UBS0 1-482) (enzyme)” the binding (Myc-tagged PRMT6) was “binds”.

For “His-S6K2 (from UniProt Q9UBS0 1-482) (enzyme)”, the binding (GST-PRMT3) was “binds”, the binding (GST-PRMT6) was “binds” and the binding (GST-PRMT1) was “binds”.

With “Myc-tagged PRMT6 (from UniProt Q96LA8 1-375) (enzyme)” the binding [1] was “binds”.

In the case of “PRMT1, endogenous (from UniProt Q99873 1-371) (enzyme)”, the binding [2] is reported as “binds”.

In the case of “PRMT6, endogenous (from UniProt Q96LA8 1-375) (enzyme)”, the binding [2] is reported as “binds”.
